Changes are numbered by the printed parent chain. At least one peptide structure holds a part that was inferred or is arguable (an end, a ring closure or a residue).
What was measured:
[1] = system: BFL-1ΔC; experiment: In vitro covalent conjugation assay; type: binding, human
Procedure: In Vitro Covalent Conjugation Assay: BFL-1ΔC constructs (40 μM) were combined with NOXA SAHBA or NOXA SAHBA C25S (120 μM) and 10 mM DTT in 50 mM Tris pH 8.0, 100 mM NaCl (final volume, 5 μL), and then incubated in the dark for 1 h at room temperature (RT). After this incubation in a reducing environment, the mixture was diluted 5-fold into 50 mM Tris pH 8.0, 100 mM NaCl, 12 mM GSSG and incubated in the dark for an additional 30 min at RT. The samples were then boiled in 4× loading buffer lacking DTT and electrophoresed on 12% Bis-Tris gel. The gel was rinsed with water, subjected to FITC scan (Typhoon FLA 9500, GE Healthcare) and then Coomassie staining.
For warhead-bearing SAHBs, His-BFL-1ΔC C4S/C19S protein was pretreated with 10 mM DTT in 50 mM Tris pH 8.0, 100 mM NaCl for 30 min at RT (final volume, 9.5 μL), and then combined with a 10:1 molar ratio of NOXA SAHBA or BIM SAHBA peptides bearing warheads 1-8 (final volume, 10 μL) for an additional 2 h incubation at RT. Processing for gel electrophoresis and Coomassie staining was performed as above.

By UniProt entry, the sequences of proteins in these tests, tags left out. Residues count along the entry.
UniProt Q07817, 1-212, stated change not applied: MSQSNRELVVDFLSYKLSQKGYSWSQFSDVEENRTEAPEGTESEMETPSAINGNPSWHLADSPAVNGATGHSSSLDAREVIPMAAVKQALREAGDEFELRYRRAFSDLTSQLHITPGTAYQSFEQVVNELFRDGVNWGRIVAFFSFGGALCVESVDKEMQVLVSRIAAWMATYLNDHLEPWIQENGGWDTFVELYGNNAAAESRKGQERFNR
UniProt Q16548, 1-153 C4S/C19S: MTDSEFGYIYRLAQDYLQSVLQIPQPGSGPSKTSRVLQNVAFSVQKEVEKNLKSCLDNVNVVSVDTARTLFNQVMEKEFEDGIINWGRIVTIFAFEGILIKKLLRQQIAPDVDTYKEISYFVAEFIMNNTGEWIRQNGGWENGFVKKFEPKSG

[2] = molecular target: T1, BCL-XLΔC (Homo sapiens, UniProt Q07817); experiment: In vitro covalent conjugation assay; type: binding
T1 construct: MCL-1ΔNΔC (aa 170-327) and BCL-XLΔC (aa 1-212) constructs were cloned into pGEX-4T-1; GST (N, cleaved yes); made in house; host or cells: Escherichia coli BL21(DE3)
Procedure: After this incubation in a reducing environment, the mixture was diluted 5-fold into 50 mM Tris pH 8.0, 100 mM NaCl, 12 mM GSSG and incubated in the dark for an additional 30 min at RT. […] The gel was rinsed with water, subjected to FITC scan (Typhoon FLA 9500, GE Healthcare) and then Coomassie staining.
Processing for gel electrophoresis and Coomassie staining was performed as above.

[3] = molecular target: T2, His-BFL-1ΔC (Homo sapiens, UniProt Q16548); experiment: Streptavidin pull-down from anti-apoptotic protein mixture; type: binding; conditions: 1:1:1:1 mixture, 1 μM each, biotinylated SAHBs
T2 construct: cDNA encoding BFL-1ΔC (aa 1-153) was cloned into the pET19b expression vector; made in house; host or cells: Escherichia coli BL21(DE3) LOBSTR
T2 sequence (Q16548 1-153): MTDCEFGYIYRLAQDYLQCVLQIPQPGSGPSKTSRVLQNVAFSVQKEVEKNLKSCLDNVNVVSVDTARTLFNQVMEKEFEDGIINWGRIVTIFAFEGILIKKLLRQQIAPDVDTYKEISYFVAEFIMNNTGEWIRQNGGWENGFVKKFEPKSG

[4] = molecular target: T3, BFL-1ΔC (Homo sapiens, UniProt Q16548); experiment: Liposomal release assay with SAHBA-3/BFL-1ΔC conjugates; type: biochemical; conditions: SAHBA-3 conjugated BFL-1ΔC (1.5 μM)
T3 construct: cDNA encoding BFL-1ΔC (aa 1-153) was cloned into the pET19b expression vector; made in house; host or cells: Escherichia coli BL21(DE3) LOBSTR
T3 sequence (Q16548 1-153): T2 sequence (Q16548 1-153)

[5] = molecular target: T4, HA-BFL-1ΔC C4S/C19S (Homo sapiens, UniProt Q16548, C19S/C4S); experiment: Crosslinking in transfected 293T lysates (HA and biotin western); type: binding
T4 construct: BFL-1ΔC (aa 1-153); expressed in transfected cells; host or cells: 293T cells, pCMV plasmid, transient
T4 sequence (Q16548 1-153 C4S/C19S): T2 sequence (Q16548 1-153) with C4S, C19S

[6] = molecular target: T4, HA-BFL-1ΔC C4S/C19S; experiment: Covalent targeting of BFL-1 in treated transfected 293T cells; type: cell-based; conditions: 12 hour evaluation period, 20 μM
[7] = system: A375P cells; experiment: Caspase 3/7 activation (Caspase-Glo); type: cell-based, human; conditions: 40 μM
[8] = system: A375P cells; experiment: Mitochondrial cytochrome c release; type: cell-based, human; conditions: 40 μM
[9] = molecular target: T5, native BFL-1 (Homo sapiens, UniProt Q16548); experiment: SA pull-down from A375P lysates, BFL-1 western; type: binding; conditions: biotinylated SAHBs
T5 construct: native BFL-1 (A375P); endogenous in cells; host or cells: A375P melanoma cells (lysate; purified mitochondria)
T5 sequence (Q16548 1-175): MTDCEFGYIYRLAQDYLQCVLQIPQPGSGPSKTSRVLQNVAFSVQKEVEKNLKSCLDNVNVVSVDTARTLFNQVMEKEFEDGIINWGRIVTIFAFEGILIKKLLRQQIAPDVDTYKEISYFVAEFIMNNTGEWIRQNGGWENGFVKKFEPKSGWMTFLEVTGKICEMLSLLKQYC

## C=CC(=O)N1CCC[C@@H](C(=O)N[C@H](C(=O)N[C@@H](C)C(=O)N[C@@H](CCC(N)=O)C(=O)N[C@@H](CCC(=O)O)C(=O)N[C@@H](CC(C)C)C(=O)N[C@@H](CCCNC(=N)N)C(=O)N[C@@]2(C)CCCC=CCCC[C@@](C)(C(=O)N[C@@H](Cc3ccccc3)C(=O)N[C@@H](CC(N)=O)C(=O)N[C@@H](C)C(=O)N[C@@H](Cc3ccc(O)cc3)C(=O)N[C@@H](Cc3ccc(O)cc3)C(=O)N[C@@H](C)C(=O)N[C@@H](CCCNC(=N)N)C(=O)N[C@@H](CCCNC(=N)N)C(N)=O)NC(=O)[C@H](CC(=O)O)NC(=O)CNC(=O)[C@H]([C@@H](C)CC)NC2=O)[C@@H](C)CC)C1 [BIM SAHBA-3]
[1]
  reactivity with BFL-1 WT, C4S/C19S, C55S and C4S/C19S/C55S constructs: exclusive reactivity with the WT and BFL-1 C4S/C19S constructs
[2]
  covalent reactivity: did not react
[3]
  BFL-1ΔC engagement in SA pull-down: increased BFL-1ΔC targeting propensity
[4]
  effect on BFL-1ΔC suppression of tBID-triggered BAX-mediated liposomal release: the inhibitory function of BFL-1 was lost
[5]
  non-specific reactivity with other lysate proteins (biotin western): little to no non-specific reactivity
[6]
  crosslinked BFL-1 species over time: progressive increase in the crosslinked species
[7]
  caspase 3/7 activation compared to BIM SAHBA1: higher levels of caspase 3/7 activation
[8]
  cytochrome c release compared to BIM SAHBA1: higher levels
[9]
  engagement of native BFL-1: markedly increased engagement of BFL-1
